Measured values taken from PubChem BioAssay AID1347075 (National Center for Advancing Translational Sciences (NCATS), 2019).
Among all 400,000 compounds or so, about 5,500 (1.4%) were called active. The shares of active, inactive and inconclusive entries below differ from those in the screen. The call rests on the fitted dose curve; in most records, active means well fitted cell-killing curve with a large enough effect; inconclusive means small, poorly fitted or top-dose-only effect, or effect the other way; inactive means flat fitted curve, though single readings scatter. Potencies of inconclusive entries are doubtful fits and often do not repeat.

Assay: qHTS assay for MDR1-selective chemotherapeutics: Primary screen using the parental adenocarcinoma cell KB-3-1; further: nearly all actives have a fitted effect of over 60% in size
Settings: KB-3-1 viability, CellTiter-Glo ATP luminescence, 72 h; activity change, negative = cytotoxic: at 46.1 µM (top of the series)
Summary of the method: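 KB-3-1 parental drug-naive adenocarcinoma cells in DMEM/10% FBS, incubated 72 h at 37 C with pin-transferred compounds across a concentration series. Viability by CellTiter-Glo luminescence; concentration-response curves fitted after normalization.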
On the % scale 0 is the no-effect control and ±100 the full control effect; potency means the concentration at half of the fitted maximal effect.

**Q.** Which Potency does the source give for `CCCCSCCCNC(=O)CS(=O)Cc1nc(-c2cccc(C)c2)oc1C` (configuration not stated) here?
**A.** inactive

**Q.** Which Potency does the source give for `Cn1cc(Br)c(C(=O)N/N=C/c2cccc(OC3CSC3)c2)n1` here?
**A.** inconclusive: 29.1 µM [rising, single point]

**Q.** With `Cc1cc(/C=C2/NC(=O)NC2=O)c(C)n1-c1ccc(N2CCOCC2)cc1` as the compound, how does the Potency read?
**A.** inconclusive: 3.26 µM [rising, partial curve, poor fit]

**Q.** With `CCCCSc1nnc2c(n1)OC(c1ccc(Br)s1)Nc1ccccc1-2` (configuration not stated) as the compound, how does the Potency read?
**A.** inactive

**Q.** Which Potency does the source give for `C=CCOC(=O)Nc1nc(CCNC(=O)OCc2ccccc2)c(C(=O)OC)s1` here?
**A.** inactive

**Q.** For `Cn1c(=O)c2c(nc(N/N=C/c3cccs3)n2Cc2ccccc2)n(C)c1=O`, which Potency is on record?
**A.** inconclusive: 20.6 µM [cytotoxic, single point]

**Q.** With `CC(=O)Nc1ccc(N/C(C)=C/C(=O)c2cccnc2)cc1` as the compound, how does the Potency read?
**A.** inconclusive: 11.6 µM [rising, partial curve, poor fit]

**Q.** With `CN(C)c1ccc(CNC(=O)CCCN2C(=O)c3cccnc3Oc3ccc(Cl)cc32)cc1` as the compound, how does the Potency read?
**A.** inactive

**Q.** Which Potency does the source give for `COc1ccc(C2N=C(Nc3nc4ccccc4o3)NC3=C2C(=O)CC(C)(C)C3)cc1` (configuration not stated) here?
**A.** inconclusive: 23.1 µM [cytotoxic, partial curve, poor fit]

**Q.** With `COc1ccc(/C=N/NC(=O)c2cccc(Br)c2)cc1Cn1cc(Cl)cn1` as the compound, how does the Potency read?
**A.** inconclusive: 16.4 µM [cytotoxic, partial curve]

**Q.** Which Potency does the source give for `CC1=C(C#N)C(c2ccccc2)C2=C(N1)c1ccccc1C2=O` (configuration not stated) here?
**A.** active: 2.06 µM

**Q.** Which Potency does the source give for `O=S(=O)(NCCc1nnc2ccc(SCc3ccccc3Cl)nn12)c1ccccc1` here?
**A.** inconclusive: 16.4 µM [cytotoxic, single point]

**Q.** With `CC[C@@H]1CC=C[C@H]2[C@H]1C(=O)N(Cc1ccccc1)[C@H]2c1ccoc1` as the compound, how does the Potency read?
**A.** active: 14.6 µM

**Q.** Which Potency does the source give for `CCCC(=O)Nc1ccc(NC(=O)c2ccccc2Cl)nc1` here?
**A.** inconclusive: 32.6 µM [cytotoxic, single point]

**Q.** Which Potency does the source give for `Cc1cc(C)c(CSc2ncc(-c3ccc([N+](=O)[O-])cc3)[nH]2)c(C)c1` here?
**A.** inconclusive: 29.1 µM [cytotoxic, single point]

**Q.** Which Potency does the source give for `CCc1cc(C(=O)c2ccc(OC)cc2)c(NC(=O)CN2CCCC2)s1` here?
**A.** inactive

**Q.** For `Cc1ccc2cc3c(NC(=O)c4ccco4)nn(C)c3nc2c1`, which Potency is on record?
**A.** inconclusive: 23.1 µM [cytotoxic, single point]

**Q.** For `CC(C)Sc1nc(N2CCCC2)c2c(c1C#N)CC(C)(C)OC2`, which Potency is on record?
**A.** inconclusive: 32.6 µM [cytotoxic, single point]

**Q.** For `CC(C=CC(O)=C1C(=O)CNC1=O)=C[C@@H](C)C1OC2(C)OC(C(=O)C3O[C@@]32C)C1C` (some centres not stated), which activity change, negative = cytotoxic is on record?
**A.** inconclusive: 9.09%

**Q.** Which Potency does the source give for `C[C@H](NC(=O)/C=C/[C@H]1O[C@@H](n2ccc(=O)[nH]c2=O)[C@H](O)[C@@H]1O)C(=O)O` here?
**A.** inactive

**Q.** Which Potency does the source give for `COc1cc2[nH]c(=O)n(CCCC(=O)NC3CCCCC3)c(=O)c2cc1OC` here?
**A.** inactive

**Q.** With `CCC1Oc2ccc(C)cc2N(CC(=O)N(Cc2ccc(C)o2)C2CC(C)(C)NC(C)(C)C2)C1=O` (configuration not stated) as the compound, how does the Potency read?
**A.** inconclusive: 29.1 µM [cytotoxic, single point]

**Q.** Which Potency does the source give for `O=S(=O)(Nc1ccc(O)c(Sc2nc3ccccc3s2)c1)c1cc(Cl)ccc1Cl` here?
**A.** inconclusive: 29.1 µM [cytotoxic, single point]

**Q.** With `Cn1c(SCc2cccc(Br)c2)nc2ccccc2c1=O` as the compound, how does the Potency read?
**A.** inconclusive: 32.6 µM [cytotoxic, partial curve, poor fit]

**Q.** For `CCOc1cc(C(=O)N(C)Cc2cc3cc(OC)ccc3[nH]c2=O)cc(OCC)c1OCC`, which Potency is on record?
**A.** inactive

**Q.** Which Potency does the source give for `Cc1c(Cl)cccc1NC(=O)C(=O)NCCc1csc2nc(-c3ccccc3F)nn12` here?
**A.** inconclusive: 32.6 µM [cytotoxic, single point]

**Q.** With `Fc1cccc(Nc2nc(N3CCOCC3)nc(N3CCOCC3)n2)c1` as the compound, how does the Potency read?
**A.** inconclusive: 18.4 µM [cytotoxic, single point]

**Q.** Which Potency does the source give for `CCN(CC)c1ccc(/C=c2\sc3nc4ccccc4n3c2=O)c(O)c1` here?
**A.** inconclusive: 16.4 µM [cytotoxic, single point]

**Q.** Which Potency does the source give for `O=C1CC(O)(C(F)(F)F)Oc2c1ccc1ccccc21` (configuration not stated) here?
**A.** inactive

**Q.** With `O=C(N/N=C/c1cccnc1)c1cc(-c2cccs2)nc2ccccc12` as the compound, how does the Potency read?
**A.** active: 16.4 µM

**Q.** With `S=C(NNC(=S)Nc1ccc(Cl)cc1)NNc1ccccc1` as the compound, how does the Potency read?
**A.** inconclusive: 29.1 µM [rising, single point]

**Q.** For `COc1cccc2c(=O)c(SC(F)(F)C(F)C(F)(F)F)c(C)[nH]c12` (configuration not stated), which Potency is on record?
**A.** inconclusive: 3.66 µM [cytotoxic, partial curve, poor fit]

**Q.** For `CCCCCCc1cc2cc(C(=O)Nc3cccc(OC)c3)c(=O)oc2cc1O`, which Potency is on record?
**A.** active: 7.31 µM

**Q.** For `O=c1c2sccc2nc(SCc2ccc([N+](=O)[O-])cc2)n1Cc1ccccn1`, which Potency is on record?
**A.** inconclusive: 32.6 µM [cytotoxic, partial curve, poor fit]

**Q.** Which Potency does the source give for `CC(=O)c1c(C)[nH]c(C(=O)COc2cc(C)ccc2C(C)C)c1C` here?
**A.** inactive

**Q.** Which Potency does the source give for `CCOC(=O)C1(Cc2cccc(OC)c2)CCN(C/C=C/c2ccc(OC)cc2)CC1` here?
**A.** inconclusive: 29.1 µM [cytotoxic, single point]

**Q.** For `CCOC(=O)C1CCCN(C(=O)c2ccc3c(c2)N(C)C(=O)/C(=C/c2ccccc2Cl)S3)C1` (configuration not stated), which Potency is on record?
**A.** inconclusive: 32.6 µM [cytotoxic, single point]

**Q.** Which Potency does the source give for `Cc1cc(N2C3CCC2CC(O)(c2ccc(F)cc2)C3)nc(-c2ccccc2)n1` (configuration not stated) here?
**A.** inactive

**Q.** For `Cc1nc(-c2ccccc2)sc1C(=O)/C=C/c1ccc(Cl)cc1`, which Potency is on record?
**A.** inconclusive: 20.6 µM [cytotoxic, single point]

**Q.** With `CC(=O)NCCN1C(=O)S/C(=C\c2cccs2)C1=O` as the compound, how does the Potency read?
**A.** inconclusive: 0.517 µM [rising, full curve]

**Q.** For `S=C(N/N=C/c1ccc2c(c1)OCO2)NC1CC2CCC1C2` (configuration not stated), which Potency is on record?
**A.** inconclusive: 16.4 µM [cytotoxic, partial curve]

**Q.** With `C=CCn1c(O)c(N=NC(=S)Nc2ccc(OC)cc2)c2ccccc21` as the compound, how does the Potency read?
**A.** inconclusive: 4.11 µM [cytotoxic, full curve]

**Q.** For `NC(=O)c1c(NC(=O)C2COc3ccccc3O2)sc2c1CCN(Cc1ccccc1)C2` (configuration not stated), which Potency is on record?
**A.** inconclusive: 18.4 µM [cytotoxic, single point]

**Q.** For `CC(=O)Cn1ncc(Br)c(Br)c1=O`, which Potency is on record?
**A.** inconclusive: 23.1 µM [cytotoxic, partial curve, poor fit]

**Q.** For `CC(C)C(=O)c1cn(CC(=O)N2CCCc3ccccc32)c2ccccc12`, which Potency is on record?
**A.** inactive

**Q.** For `Cc1cccc(NC(=O)c2ccc(C(=O)c3ccccc3)cc2)n1`, which Potency is on record?
**A.** inconclusive: 13 µM [cytotoxic, single point]

**Q.** With `Cn1c(=NC(=O)C2=NNC(=O)CC2)sc2ccccc21` as the compound, how does the Potency read?
**A.** active: 3.26 µM

**Q.** For `COc1ccc(-c2cc(NC(C)=O)c3ncc(-c4cc(OC)c(OC)c(OC)c4)n3c2)cn1`, which Potency is on record?
**A.** active: 5.8 µM

**Q.** With `CCn1cc(/C=N\NC(=O)c2cc(-c3ccccc3OC)nc3ccccc23)c(C)n1` as the compound, how does the Potency read?
**A.** inconclusive: 23.1 µM [rising, partial curve, poor fit]

**Q.** For `CCCNCC1C(Oc2ccc(Cl)cc2Cl)C(=O)N1c1cccc(C)c1C` (configuration not stated), which Potency is on record?
**A.** inactive

**Q.** For `CN(Cc1ccc(Cl)c(Cl)c1)C(=O)C1=CC=CN2CCS(=O)(=O)N=C12`, which Potency is on record?
**A.** inconclusive: 29.1 µM [cytotoxic, single point]

**Q.** With `COc1cc(OC)c(OC)cc1/C=C/c1ccnc2ccccc12` as the compound, how does the Potency read?
**A.** inconclusive: 29.1 µM [cytotoxic, single point]

**Q.** Which Potency does the source give for `COc1ccc(NC(=O)COc2ccc(/C=C/c3cc[n+](C)cc3)cc2OC)cc1` here?
**A.** inconclusive: 16.4 µM [cytotoxic, single point]

**Q.** With `S=C(Nc1ccccn1)c1ccccn1` as the compound, how does the Potency read?
**A.** inconclusive: 2.91 µM [cytotoxic, partial curve, poor fit]

**Q.** Which Potency does the source give for `O=C(NC(=S)Nc1ccc2ncccc2c1)c1ccccc1` here?
**A.** inconclusive: 2.59 µM [rising, partial curve, poor fit]

**Q.** For `CCCn1c(C(C)Nc2nc(-c3ccc(Cl)c([N+](=O)[O-])c3)cs2)nc2ccccc21` (configuration not stated), which Potency is on record?
**A.** inconclusive: 29.1 µM [cytotoxic, single point]

**Q.** Which Potency does the source give for `FC(F)(F)c1cccc(Sc2cc(C(F)(F)F)nc(-c3ccccn3)n2)c1` here?
**A.** inconclusive: 29.1 µM [cytotoxic, single point]

**Q.** Which Potency does the source give for `COc1cc(-c2nnc(COC(=O)CSc3cc(C)c4ccccc4n3)o2)cc(OC)c1OC` here?
**A.** inactive

**Q.** With `O=C(Nc1cccc(-c2cnc3ccccc3n2)c1)C1CC(=O)N(c2ccccc2)C1` (configuration not stated) as the compound, how does the activity change, negative = cytotoxic read?
**A.** inconclusive: 36.3%

**Q.** For `COc1ccc2c(c1)c(N1CCCC1=O)c(C(=O)Nc1ccc(OC)c(Cl)c1)n2C`, which Potency is on record?
**A.** inactive

**Q.** With `CCCCNc1c(-c2cccc(-c3ccc(OC)cc3)c2)nc2ccc(C)cn12` as the compound, how does the Potency read?
**A.** inconclusive: 23.1 µM [cytotoxic, single point]

**Q.** For `CC(C)Cc1cc(C(C)(C)C)ccc1OC(=S)N(C)C`, which Potency is on record?
**A.** inconclusive: 7.31 µM [cytotoxic, full curve, poor fit]

**Q.** Which Potency does the source give for `CN(C)CCCN=c1cc(-c2ccccc2)oc2ccc(Cl)cc12` here?
**A.** inconclusive: 29.1 µM [cytotoxic, single point]

**Q.** With `Cc1cccc(N/C(N)=N/c2nc(C)c(Cc3ccccc3)c(=O)[nH]2)c1` as the compound, how does the Potency read?
**A.** active: 20.6 µM

**Q.** Which Potency does the source give for `Cc1cc(C)cc(Oc2nc(C(F)(F)F)nc3ccccc23)c1` here?
**A.** inconclusive: 29.1 µM [cytotoxic, single point]

**Q.** Which Potency does the source give for `CCOC(=O)[C@@H]1[C@H]2COc3ccccc3[C@H]2N2C(=O)N(c3ccc(C(F)(F)F)cc3)C(=O)[C@]12C` here?
**A.** inconclusive: 29.1 µM [cytotoxic, single point]

**Q.** Which Potency does the source give for `CCCCCCCCN1C(=O)[C@H](CC(=O)NCc2cccc3ccccc23)C[C@@]2(C(=O)OCC)CCCC=C12` here?
**A.** inconclusive: 20.6 µM [cytotoxic, single point]
